Experimental data published in patent publication US8188009B2, “4-(3-aminobenzoyl)-5-cyclopropylisoxazoles effective as herbicides” (Bayer Cropscience AG, priority 2008, dated 2012).
Some results were stated once for a whole list of compounds, not compound by compound. At least one structure is not confirmed: it was looked up by name or label, or the drawing left a doubt.

Columns and labels:
Type in all cases: in vivo
Setaria viridis [1] = assay: Herbicidal pre-emergence effect against harmful plants; conditions: 320 g/ha, scored visually after 3 weeks, 100% = plants have died, 0% = like control plants
Stellaria media [2] = assay: as above; conditions: 320 g/ha, scored visually after 3 weeks, 100% = plants have died, 0% = like control plants
Viola tricolor = assay: Herbicidal post-emergence activity against harmful plants; conditions: 80 g/ha, scored visually after approximately 3 weeks, 100% = plants have died, 0% = like control plants
Stellaria media [3] = assay: as above; conditions: 80 g/ha, scored visually after approximately 3 weeks, 100% = plants have died, 0% = like control plants
Setaria viridis [4] = assay: as above; conditions: 80 g/ha, scored visually after approximately 3 weeks, 100% = plants have died, 0% = like control plants
Amaranthus retroflexus [5] = assay: Herbicidal pre-emergence effect against harmful plants; conditions: 320 g/ha, scored visually after 3 weeks, 100% = plants have died, 0% = like control plants
Echinochloa crus galli [6] = assay: as above; conditions: 320 g/ha, scored visually after 3 weeks, 100% = plants have died, 0% = like control plants
Abutilon theophrasti [7] = assay: as above; conditions: 320 g/ha, scored visually after 3 weeks, 100% = plants have died, 0% = like control plants
Abutilon theophrasti [8] = assay: Herbicidal post-emergence activity against harmful plants; conditions: 80 g/ha, scored visually after approximately 3 weeks, 100% = plants have died, 0% = like control plants
Echinochloa crus galli [9] = assay: as above; conditions: 80 g/ha, scored visually after approximately 3 weeks, 100% = plants have died, 0% = like control plants
Amaranthus retroflexus [10] = assay: as above; conditions: 80 g/ha, scored visually after approximately 3 weeks, 100% = plants have died, 0% = like control plants

SMILES	herbicidal activity in percent (Setaria viridis [1])	herbicidal activity in percent (Stellaria media [2])	herbicidal activity in percent (Viola tricolor)	herbicidal activity in percent (Stellaria media [3])	herbicidal activity in percent (Setaria viridis [4])	herbicidal activity in percent (Amaranthus retroflexus [5])	herbicidal activity in percent (Echinochloa crus galli [6])	herbicidal activity in percent (Abutilon theophrasti [7])	herbicidal activity in percent (Abutilon theophrasti [8])	herbicidal activity in percent (Echinochloa crus galli [9])	herbicidal activity in percent (Amaranthus retroflexus [10])
CCCNc1c(S(C)(=O)=O)ccc(C(=O)c2cnoc2C2CC2)c1C [compound 4]	at least 90%	at least 90%	at least 80%	at least 80%	at least 80%	–	–	–	–	–	–
COc1c(C(=O)c2cnoc2C2CC2)ccc(S(C)(=O)=O)c1N [compound 543]	–	–	–	–	–	at least 90%	at least 90%	at least 90%	–	–	–
COc1c(C(=O)c2cnoc2C2CC2)ccc(S(C)(=O)=O)c1N(C)C [compound 564]	at least 90%	at least 90%	at least 80%	at least 80%	at least 80%	at least 90%	at least 90%	at least 90%	–	–	–
CNc1c(Cl)ccc(C(=O)c2cnoc2C2CC2)c1OC [compound 616]	–	–	–	–	–	at least 90%	at least 90%	at least 90%	at least 90%	at least 90%	at least 90%
COc1c(C(=O)c2cnoc2C2CC2)ccc(Cl)c1N=CN(C)C [compound 621]	–	–	–	–	–	at least 90%	at least 90%	at least 90%	at least 90%	at least 90%	at least 90%
